Results taken from PMC9813592, “A genetic screen in Arabidopsis reveals the identical roles for RBP45d and PRP39a in 5’ cryptic splice site selection”.
For at least one entry, the source does not settle the construct or the ends of the probe. Weaker means in comparison with the reference protein, sequence or condition of that experiment. Tags and fusion partners may be left off the protein sequences shown.

Target: T1, RBP45d (His-RBP45d) (UniProt Q8VXZ9)
T1 sequence (looked up, limits assumed): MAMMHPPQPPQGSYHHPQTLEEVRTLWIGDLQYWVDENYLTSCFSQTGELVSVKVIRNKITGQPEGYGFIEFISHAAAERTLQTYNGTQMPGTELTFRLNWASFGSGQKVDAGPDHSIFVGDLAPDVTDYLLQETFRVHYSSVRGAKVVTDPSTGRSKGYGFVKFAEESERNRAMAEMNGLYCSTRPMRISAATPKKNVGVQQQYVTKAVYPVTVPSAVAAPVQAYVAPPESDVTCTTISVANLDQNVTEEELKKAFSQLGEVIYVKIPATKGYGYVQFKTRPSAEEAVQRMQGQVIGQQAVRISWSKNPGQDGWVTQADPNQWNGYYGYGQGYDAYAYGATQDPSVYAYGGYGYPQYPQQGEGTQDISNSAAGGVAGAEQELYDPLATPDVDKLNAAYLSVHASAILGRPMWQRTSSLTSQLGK
Experiment: competition with a labelled probe
Details: unlabeled vs Cy5-SOT5-IN7; REMSA; unlabeled competitor up to at least 6 uM; recombinant protein; protein details: His (pET51b)

“CUCAAUAUGGCAAACCGGGUAAAUC [SOT5-IN7-M3-NL]”: binds more weakly.
